# PubChem BioAssay AID493014 (National Center for Advancing Translational Sciences (NCATS), 2011)
# In all, about 340,000 compounds went through this assay and about 170 (0.05%) were called active. The inconclusive results got no clear call from the source; some entries with a clear call stand among them for comparison. The call rests on the fitted dose curve; in most records, active means well fitted inhibition curve with a large enough effect in the signal ratio, with a control signal flat (not every such curve was filed as active); inconclusive means small, poorly fitted or top-dose-only effect, or effect the other way, or a change in a side signal; inactive means flat fitted curve, though single readings scatter; the % refers to the signal ratio. A potency beside an inconclusive call is a rough fit, not a confirmed value.
# Assay: qHTS Assay to Find Inhibitors of Chronic Active B-Cell Receptor Signaling;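 on activity change, negative = inhibition: plate controls were basal doxycycline-induced cells for no effect and cells given 10 µM MG132 for full effect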
# Conditions: ABC-DLBCL IkBa-CBG/CBR reporter, luminescence ratio (green luciferase fused to IkBa over red control in TMD8 lymphoma cells), 4 h; activity change, negative = inhibition: at 46.1 µM (top of the series)
# Outline: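 Cell line TMD8 (human ABC DLBCL), stably expressing tet-inducible CBG68-IkBa fusion and CBR; IMDM/0.5% FBS; cpd up to 46 uM; dox induction, 4 h, 37C/5% CO2; dual luminescence; green/red ratio; MG132 control.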
# Potency means the concentration at half of the fitted maximal effect.
SMILES,"activity change, negative = inhibition",Potency
O=C(Nc1cc2ccc(O)cc2oc1=O)c1ccccc1,inconclusive: 264%,–
Fc1ccccc1COc1ccc2ccccc2c1CNc1nn[nH]n1,inconclusive: -1.13%,–
Cc1cc(Cn2nc(-c3ccccc3)cc2C(=O)NCc2cccc(C(F)(F)F)c2)on1,inconclusive: 1.48%,–
O=c1/c(=C\c2cccnc2)sc2nc3ccccc3n12,inactive: 12.7%,–
Cc1ccsc1C1C=C(c2cccc(Br)c2)Nc2ncnn21 (stereo unspecified),inconclusive: -12.5%,–
O=C(O)CCCNC(=O)CCn1nnc2ccccc2c1=O,inactive: -0.287%,–
Cn1c(CCc2ccc(N)cc2)nc2ccccc21,inactive: 0.653%,–
O=c1[nH]c2ccc(Cl)cc2c(-c2ccccc2)c1N1CCOCC1,inactive: 13.9%,–
COc1cc(O)c(C(CCN2CCOCC2)c2ccc3c(c2)OCO3)c(OC)c1 (stereo unspecified),inactive: -8.43%,–
COC(=O)c1c(N)sc(Cc2ccccc2)c1C,inconclusive: 0.306%,–
COc1cc(Cl)c(C)cc1NC(=O)Cc1cccs1,inactive: 8.72%,–
COc1cccc(-c2csc(N3CCN(C(=O)Nc4ccc(Cl)cc4)CC3)n2)c1,inconclusive: 14.5%,–
COCCOC(=O)c1c(C)oc2ccc(OS(C)(=O)=O)cc12,inactive: 6.55%,–
O=C(OCC(=O)c1cccs1)c1ccccc1,–,"inconclusive: 17.8 µM [falling, partial curve, poor fit]"
C=CCNC(=O)c1ccc2c3n(nc2c1)-c1ccccc1CO3,inconclusive: -17.4%,–
COc1ccc(N2C(=O)/C(=C\c3ccco3)N=C2SCC(=O)NC(C)(C)C)cc1Cl,–,"inconclusive: 14.6 µM [falling, partial curve]"
Cc1ccc(-c2nc3n(n2)Cc2ccccc2-3)cc1,–,"inconclusive: 18.4 µM [falling, partial curve]"
Nc1nc(N)c(N=Nc2ccc(Cl)cc2)c(=O)[nH]1,–,"inconclusive: 35.5 µM [falling, single point]"
O=C(Cc1c[nH]c2ccccc12)OCC(=O)c1ccccc1,–,"inconclusive: 22.4 µM [falling, partial curve]"
COc1ccc(C(=O)NC(=S)N2CCN(c3ccccc3OC)CC2)cc1OC,inactive: -1.23%,–
Cc1ccc(C)c(S(=O)(=O)Nc2ccccc2C(=O)Nc2cc(C)on2)c1,inactive: 4.45%,–

SMILES,"activity change, negative = inhibition",Potency
CC(C)C(OC(=O)Cn1nnc2ccccc21)C(=O)NC1CCCC1 (stereo unspecified),inconclusive: -12.4%,–
CC1=C(C(=O)N(C)C)C(c2ccc(N3CCOCC3)cc2)NC(=O)N1 (stereo unspecified),inconclusive: 0.0943%,–
O=C(Nc1c(-c2ccccc2)nc2ccccn12)c1ccccc1F,inconclusive: 2.58%,–
COc1cc2c(cc1OC)C(c1cccc(F)c1)CC(=O)N2 (stereo unspecified),inconclusive: -11.2%,–
CCN(CC)C(=O)CSc1nnc2nnc3cc(C)ccc3n12,inactive: 14.7%,–
C=CCn1c(SCC(=O)Nc2cc(C)on2)nnc1C1COc2ccccc2O1 (stereo unspecified),inconclusive: 6.6%,–
CCOC(=O)N/N=C\c1ccc(-c2cccc(C(F)(F)F)c2)o1,inactive: -5.23%,–
COc1ccc(C2C=C(c3ccccc3)Nc3ncnn32)cc1 (stereo unspecified),–,"inconclusive: 29.1 µM [falling, single point]"
Cc1cc(Cl)ccc1Oc1cccc(C(=O)/C(C#N)=C/N(C)C)c1,–,"inconclusive: 23.1 µM [rising, single point]"
Cc1cc(C)c(C)c(S(=O)(=O)ON2C(=O)c3ccccc3C2=O)c1C,inactive: -3.32%,–
Cc1ccccc1C(=O)NNc1ccc(-c2csnn2)cc1,–,"inconclusive: 15.8 µM [falling, single point]"
O=C(COC(=O)c1ccc(O)cc1O)c1ccc2c(c1)OCCO2,–,"inconclusive: 23.1 µM [falling, partial curve, poor fit]"
O=C(Cn1c(=O)oc2ccccc21)N1CCN(c2ccccc2)CC1,inconclusive: -5.05%,–
COc1cc(OC)cc(-c2nc3ccccc3c(=O)n2OC(=O)c2ccc(C)c(C)c2)c1,inconclusive: -19.3%,–
Cc1cc(C)nc(SCCCNCc2c(F)cccc2Cl)n1,inactive: -2.47%,–
CC(=O)Oc1ccc2ccccc2c1C(NC(=O)Cc1ccccc1)c1ccc(Cl)cc1 (stereo unspecified),inconclusive: 7.65%,–
CCCCCOc1ccc(C(=O)Nc2ccc(S(=O)(=O)Nc3cc(C)on3)cc2)cc1,inconclusive: 0.0799%,–
COc1ccccc1N(C1=NCCCS1)S(=O)(=O)c1ccc(C(C)(C)C)cc1,inactive: 13.3%,–
C=C1CCC[C@]2(C)C[C@H]3OC(=O)C(CNC(C)(CO)CO)[C@H]3CC12 (stereo partly specified),–,"inconclusive: 25.1 µM [falling, single point]"
O=C(/C=C/c1ccccc1)C1C(=O)c2ccccc2C1=O,–,"inconclusive: 3.66 µM [rising, full curve, poor fit]"
Cc1nn(CC(=O)NCCN2CCCCCC2)c(=O)c2nn(-c3ccccc3)c(C)c12,inactive: -5.46%,–

SMILES,"activity change, negative = inhibition",Potency
CCOCCCNC(=O)COC(=O)/C=C/c1ccc(S(=O)(=O)N2CCc3ccccc32)cc1,–,"inconclusive: 25.1 µM [falling, partial curve, poor fit]"
CN(Cc1c(C(=O)N/N=C/c2ccc(O)cc2)nnn1-c1nonc1N)c1ccccc1,inconclusive: 1.84%,–
CC(Nc1nc(-c2ccccc2F)nc2ccccc12)c1ccccc1 (stereo unspecified),inconclusive: -0.645%,–
Cc1ccc2c(=O)c(C(=O)NCc3cccs3)c[nH]c2c1,–,"inconclusive: 1.84 µM [rising, partial curve, poor fit]"
NS(=O)(=O)c1ccc(Nc2nc(-c3ccccc3)cs2)cc1,inconclusive: -3.52%,–
Cc1conc1NC(c1cccs1)c1ccc2cccnc2c1O (stereo unspecified),inconclusive: -14.4%,–
COCCNc1cc(C)nc2cc(-c3ccc(C)cc3)nn12,inconclusive: 3.12%,–
Cn1c(SCC(=O)N2CCCC2=O)nc2ccccc21,inactive: -12.8%,–
Cc1cccc(C(=O)Nc2nnc(-c3ccco3)o2)c1,–,"inconclusive: 29.1 µM [rising, single point]"
C=CCN1C(=O)C2(C(C(=O)c3ccc(C)o3)=C(O)C(=O)N2CCCN2CCOCC2)c2ccccc21 (stereo unspecified),inconclusive: 9.39%,–
CCOc1ccc(S(=O)(=O)N2CCOCC2)cc1NC(=O)Cc1c(F)cccc1Cl,inconclusive: 2.06%,–
COc1ccc(CCNC(=O)Cn2c([N+](=O)[O-])cnc2C)cc1OC,inconclusive: 10.5%,–
CC(C)(C)c1ccc(C(=O)N2CCCCCC2=O)cc1,–,"inconclusive: 23.1 µM [falling, partial curve]"
O=C(NC1CCCCC1)C(c1cccs1)N(CC1CCCO1)C(=O)c1csnn1 (stereo unspecified),inconclusive: 2.8%,–
COc1ccc(OC)c(NC(=O)Nc2cccc(Cn3cccn3)c2)c1,inconclusive: 3.86%,–
Cc1ccc(NC(=O)CN2C(=O)c3ccccc3Sc3ccc(C(=O)N4CCOCC4)cc32)c(Cl)c1,–,"inconclusive: 0.112 µM [falling, full curve, poor fit]"
COc1ccc(NC(=O)CCC(=O)c2ccc(Cl)cc2)cn1,inactive: 8.75%,–
Cc1nn(-c2ccccc2)c(C)c1C1C(C#N)=C(N)Oc2n[nH]c(C)c21 (stereo unspecified),–,"inconclusive: 25.9 µM [falling, single point]"
Cc1ccc2oc(C(=O)N3CCC(O)(c4cccc(C(F)(F)F)c4)CC3)c(C)c2c1,inactive: -5.72%,–
COC1=C/C(=C/c2c(N)n3nc(-c4ccc(C)cc4)sc3nc2=O)C=CC1=O,–,"inconclusive: 35.5 µM [falling, single point]"
COc1ccc(Nc2nc(N3CCCCC3)c3ccccc3n2)cc1,inactive: 7.06%,–

# A draw from above in order of formula weight, ascending.
SMILES,"activity change, negative = inhibition",Potency
Cc1cccc(C(=O)Nc2nnc(-c3ccco3)o2)c1,–,"inconclusive: 29.1 µM [rising, single point]"
COc1ccc(NC(=O)CCC(=O)c2ccc(Cl)cc2)cn1,inactive: 8.75%,–
CC(Nc1nc(-c2ccccc2F)nc2ccccc12)c1ccccc1 (stereo unspecified),inconclusive: -0.645%,–
Cc1nn(-c2ccccc2)c(C)c1C1C(C#N)=C(N)Oc2n[nH]c(C)c21 (stereo unspecified),–,"inconclusive: 25.9 µM [falling, single point]"
COC1=C/C(=C/c2c(N)n3nc(-c4ccc(C)cc4)sc3nc2=O)C=CC1=O,–,"inconclusive: 35.5 µM [falling, single point]"
CCOCCCNC(=O)COC(=O)/C=C/c1ccc(S(=O)(=O)N2CCc3ccccc32)cc1,–,"inconclusive: 25.1 µM [falling, partial curve, poor fit]"

# Going on with the list.

SMILES,"activity change, negative = inhibition",Potency
COc1ccc(CCNS(=O)(=O)c2c(C)nc3scc(C)n3c2=O)cc1OC,inconclusive: -10.5%,–
O=C(O)c1c(NC(=O)c2cccc3ccccc23)sc2c1CCC2,–,"inconclusive: 0.731 µM [falling, full curve, poor fit]"
COc1ccc(-n2nc(C(=O)NCC(=O)N3CCN(c4ccccc4F)CC3)c3ccccc3c2=O)cc1OC,inactive: 1.98%,–
COCCNC(=O)c1cc(-c2ccccc2)n(Cc2cc(C)no2)n1,inconclusive: 9.23%,–
Nc1ccc(Sc2cnn(-c3ccccc3)c(=O)c2Cl)cc1,–,"inconclusive: 3.16 µM [falling, partial curve, poor fit]"
COC(=O)c1ccc(NC(=O)c2cn(-c3cccc(C)n3)cn2)cc1,–,"inconclusive: 3.98 µM [falling, partial curve, poor fit]"
O=C(N/N=C/c1ccc(OCc2ccccc2)cc1)c1cc[n+](Cc2ccccc2)cc1,inactive: -9.7%,–
O=C(Cc1ccccc1[N+](=O)[O-])NC1CC2CCC1C2 (stereo unspecified),inconclusive: 9.41%,–
CCC(C)c1ccc(NC(=O)c2ccco2)cc1 (stereo unspecified),–,"inconclusive: 20 µM [falling, partial curve, poor fit]"
O=S(=O)(Nc1cc(Sc2ncn[nH]2)c(O)c2ccccc12)c1ccccc1,–,"inconclusive: 4.47 µM [falling, single point]"
Nc1nc(SCC(=O)c2ccc(F)cc2)n[nH]1,inactive: -0.441%,–
Cc1[nH]nc(SCC(=O)N2CCCC2)c1[N+](=O)[O-],inconclusive: -28.2%,–
CCN(CC)C(=O)c1c(C)nc2ccccn12,inactive: 2.64%,–
O=S(=O)(c1ccsc1)N1CC=C(c2ccccc2)CC1,inconclusive: 4.02%,–
CCc1ccc(OCc2cccc(C(=O)N/N=C\c3cnn(C)c3C)c2)cc1,inconclusive: -12%,–
N/C(Cc1ccc([N+](=O)[O-])cc1)=N\OC(=O)c1ccc2ccccc2c1,–,"inconclusive: 9.2 µM [falling, partial curve, poor fit]"
O=C(Nc1ccccc1F)c1coc(=O)c(Br)c1,–,"inconclusive: 25.1 µM [rising, single point]"
COC(=O)Cc1cc(=O)[nH]c(Nc2nc3ccccc3o2)n1,–,"inconclusive: 18.4 µM [falling, single point]"
